For one molecule, binding results are on record in patent publication US20130058935A1 (INSTITUTE FOR CANCER RESEARCH, published 2013).

These are yes or no findings as the source states them, for the method shown. Some entries that bind do so weakly or less than the wild type.

This experiment addresses T1, mTEM7R on live cells (target antigen of scFv#4 in live cell binding assays) (mouse) (UniProt Q9DC11).
T1 sequence (looked up): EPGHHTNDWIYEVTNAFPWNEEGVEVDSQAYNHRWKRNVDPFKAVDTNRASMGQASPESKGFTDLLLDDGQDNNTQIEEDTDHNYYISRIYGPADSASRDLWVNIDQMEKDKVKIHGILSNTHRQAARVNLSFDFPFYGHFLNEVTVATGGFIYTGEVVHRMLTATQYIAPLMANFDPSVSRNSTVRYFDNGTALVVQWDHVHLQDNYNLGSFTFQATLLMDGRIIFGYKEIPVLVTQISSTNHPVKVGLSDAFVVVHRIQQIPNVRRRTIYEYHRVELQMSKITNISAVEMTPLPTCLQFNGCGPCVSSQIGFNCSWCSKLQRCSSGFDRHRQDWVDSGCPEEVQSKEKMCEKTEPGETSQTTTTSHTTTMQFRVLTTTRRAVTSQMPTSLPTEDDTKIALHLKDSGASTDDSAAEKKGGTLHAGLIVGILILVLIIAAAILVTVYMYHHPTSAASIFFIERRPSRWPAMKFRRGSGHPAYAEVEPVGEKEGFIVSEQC
As to the kind of experiment: live cell binding assay with radioiodinated scFv.

B1: anti-mTEM7R scFv#4 (scFv)
scFv: MAQVQLVESGGGLVQPGGSLRLSCAASGFTFSSYEMNWVRQAPGKGLEWVSYISSSGSTIYYADSVKGRFTISRDNSKNTLYLQMNSLRAEDTAVYYCASGDYMDVWGQGTTVTVSSSASGAELGGGGSGGGGSGGGGSTSDIQLTQSPSSLSASVGDRVTITCQASQDISNYLNWYQQKPGKAPKLLMYDASNLETGVPSRFSGSGSGTDFTFTISSLQPEDFATYYCQQSDNLPYTFGQGTKVDIKRS
notes: Human scFv from a naive phage library, expressed in E. coli TG1 (pUC119mycHis / pSYN2) and purified by Ni-NTA, so it carries a His tag; also called clone 4; anti-TEM7R scFv
For the molecule B1, the binding result is recorded as “binds”.
